In publication PMC13389011 one finds binding result and Kd data, which are given here for four sequences.

Chains of the proteins cited; added tags and fusions are not shown. Chains listed by the source or under a name are the forms on record and can include a tag or linker.
Dog insulin receptor ectodomain (DIR) (dog), one chain, as listed by the source, chain 1 of 2: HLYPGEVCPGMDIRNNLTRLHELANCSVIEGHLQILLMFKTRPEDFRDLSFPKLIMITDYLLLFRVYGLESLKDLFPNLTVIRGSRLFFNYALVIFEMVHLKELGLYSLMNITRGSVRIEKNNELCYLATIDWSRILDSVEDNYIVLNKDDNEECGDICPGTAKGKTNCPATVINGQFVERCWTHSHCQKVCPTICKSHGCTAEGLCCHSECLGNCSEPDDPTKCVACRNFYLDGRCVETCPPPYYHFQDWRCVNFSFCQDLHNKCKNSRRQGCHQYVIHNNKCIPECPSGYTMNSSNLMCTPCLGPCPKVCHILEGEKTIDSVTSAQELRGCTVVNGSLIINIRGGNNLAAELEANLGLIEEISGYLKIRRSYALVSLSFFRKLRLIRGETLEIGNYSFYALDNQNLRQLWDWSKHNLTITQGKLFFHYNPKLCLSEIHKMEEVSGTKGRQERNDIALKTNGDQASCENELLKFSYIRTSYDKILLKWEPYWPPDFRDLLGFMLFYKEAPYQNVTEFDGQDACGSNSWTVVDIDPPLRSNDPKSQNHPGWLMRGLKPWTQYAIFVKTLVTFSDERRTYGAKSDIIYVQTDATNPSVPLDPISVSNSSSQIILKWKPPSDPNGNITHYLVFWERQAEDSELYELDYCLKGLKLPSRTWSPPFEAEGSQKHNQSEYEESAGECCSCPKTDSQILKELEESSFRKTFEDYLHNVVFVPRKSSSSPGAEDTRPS
Dog insulin receptor ectodomain (DIR) (dog), one chain, as listed by the source, chain 2 of 2: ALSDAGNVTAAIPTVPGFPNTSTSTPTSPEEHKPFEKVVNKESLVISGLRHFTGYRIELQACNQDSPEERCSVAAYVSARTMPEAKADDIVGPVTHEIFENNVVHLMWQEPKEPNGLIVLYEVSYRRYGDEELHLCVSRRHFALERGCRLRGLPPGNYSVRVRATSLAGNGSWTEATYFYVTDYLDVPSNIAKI
Human insulin receptor isoform A, native (IM-9 cells) (Homo sapiens), one chain, as listed by the source, chain 1 of 2: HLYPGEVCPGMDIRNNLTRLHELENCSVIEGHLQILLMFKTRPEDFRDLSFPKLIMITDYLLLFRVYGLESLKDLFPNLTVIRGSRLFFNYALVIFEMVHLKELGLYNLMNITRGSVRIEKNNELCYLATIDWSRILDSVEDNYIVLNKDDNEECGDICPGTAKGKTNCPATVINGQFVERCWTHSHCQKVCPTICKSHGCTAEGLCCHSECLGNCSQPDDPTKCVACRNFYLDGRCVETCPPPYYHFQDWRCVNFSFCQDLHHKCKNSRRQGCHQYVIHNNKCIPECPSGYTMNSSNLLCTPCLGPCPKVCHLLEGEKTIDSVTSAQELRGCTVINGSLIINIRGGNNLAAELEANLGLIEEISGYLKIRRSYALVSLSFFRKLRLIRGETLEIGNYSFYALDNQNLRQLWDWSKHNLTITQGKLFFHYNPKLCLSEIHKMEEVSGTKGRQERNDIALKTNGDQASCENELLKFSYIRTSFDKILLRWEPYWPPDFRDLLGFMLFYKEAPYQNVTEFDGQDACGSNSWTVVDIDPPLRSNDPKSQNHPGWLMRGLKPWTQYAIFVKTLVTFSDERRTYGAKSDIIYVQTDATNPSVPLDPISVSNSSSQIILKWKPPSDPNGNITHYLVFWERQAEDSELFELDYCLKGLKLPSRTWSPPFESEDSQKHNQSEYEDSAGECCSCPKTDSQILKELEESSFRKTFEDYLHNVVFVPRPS
Human insulin receptor isoform A, native (IM-9 cells) (Homo sapiens), one chain, as listed by the source, chain 2 of 2: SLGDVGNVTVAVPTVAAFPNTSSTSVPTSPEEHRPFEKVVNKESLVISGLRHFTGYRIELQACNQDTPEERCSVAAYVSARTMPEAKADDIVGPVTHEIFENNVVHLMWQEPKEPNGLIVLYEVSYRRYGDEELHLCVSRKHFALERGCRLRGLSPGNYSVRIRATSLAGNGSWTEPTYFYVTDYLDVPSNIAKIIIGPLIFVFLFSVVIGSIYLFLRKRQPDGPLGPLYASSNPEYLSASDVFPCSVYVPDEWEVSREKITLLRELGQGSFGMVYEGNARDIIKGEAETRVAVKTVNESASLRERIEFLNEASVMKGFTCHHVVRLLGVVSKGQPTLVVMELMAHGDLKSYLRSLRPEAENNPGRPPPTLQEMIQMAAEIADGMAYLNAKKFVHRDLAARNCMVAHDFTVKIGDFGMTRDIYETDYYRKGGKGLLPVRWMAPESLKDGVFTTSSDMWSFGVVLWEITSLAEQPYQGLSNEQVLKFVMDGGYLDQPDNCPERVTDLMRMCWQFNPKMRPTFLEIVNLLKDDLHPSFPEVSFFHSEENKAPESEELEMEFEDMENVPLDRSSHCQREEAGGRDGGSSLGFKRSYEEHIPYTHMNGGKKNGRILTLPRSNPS
Human insulin receptor ectodomain (HIR) (Homo sapiens), one chain, as listed by the source, chain 2 of 2: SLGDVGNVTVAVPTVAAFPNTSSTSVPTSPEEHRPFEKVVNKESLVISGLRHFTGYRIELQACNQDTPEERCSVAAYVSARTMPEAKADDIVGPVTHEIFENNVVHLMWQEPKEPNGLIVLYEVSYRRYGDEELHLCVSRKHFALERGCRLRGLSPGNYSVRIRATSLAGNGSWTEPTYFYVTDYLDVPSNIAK

The test system of data set [1] is Human insulin receptor isoform A, native (IM-9 cells) (Homo sapiens). As to the kind of experiment: competition with 125I-insulin. The settings on record: HEPES binding buffer, 15 C; phenyl-dU (rigid) and indole-dA (flexible) after nt 20; IB: PBS (1.5 mM KH2PO4, 8.1 mM Na2HPO4, 2.7 mM KCl, 137 mM NaCl) + 5 mM MgCl2, pH 7.4; FNBA and BLI r.t.; protein on the cell surface; label: 5'-Cy5; synthetic backbone.

Data set [2] has as its system Dog insulin receptor ectodomain (DIR) (dog). Kind of data set: MST. As to conditions: DNA backbone; 7-deaza-7-(indolyl-ethyl)-dA (dAAIn) at 26,32,34,38,41,44,45,48,49,50; 5-(phenyl-ethynyl)-dU (dUEPh) at 21,22,24,27,37,47,54; PBS (1.5 mM KH2PO4, 8.1 mM Na2HPO4, 2.7 mM KCl, 137 mM NaCl) with 5 mM MgCl2, pH 7.4; MST with 0.1% Pluronic F-127 at 25 C; FNBA at room temperature; commercial protein; protein details: His-tag; label: 5'-Cy5; synthetic backbone; letters put together from the description.

For data set [3], the system named is Human insulin receptor ectodomain (HIR) (Homo sapiens). As to the kind of experiment: MST. As to conditions: DNA backbone; 7-deaza-7-(indolyl-ethyl)-dA (dAAIn) at 26,32,34,38,41,44,45,48,49,50; 5-(phenyl-ethynyl)-dU (dUEPh) at 21,22,24,27,37,47,54; PBS (1.5 mM KH2PO4, 8.1 mM Na2HPO4, 2.7 mM KCl, 137 mM NaCl) with 5 mM MgCl2, pH 7.4; MST with 0.1% Pluronic F-127 at 25 C; FNBA at room temperature; commercial protein; protein details: His-tag; label: 5'-Cy5; synthetic backbone; letters put together from the description.

The next data set has as its system CPA protein. Kind of data set: FNBA. The settings on record: IB: PBS (1.5 mM KH2PO4, 8.1 mM Na2HPO4, 2.7 mM KCl, 137 mM NaCl) + 5 mM MgCl2, pH 7.4, FNBA and BLI r.t., recombinant protein, protein details: His-tag, synthetic backbone.

For at least one entry, the source does not settle the construct or the ends of the probe. For some assays here: Negatives hold for the conditions tested. For some assays here: At least one verdict was read from the data and is not stated in words by the source. For some assays here: Results from cells or extracts need not show a direct contact.

On to “ACTGCACCTGGCCTTTAACTUUUCGCACGCGUUGAAUACUACCAUUGAGUCGUAG [HIR_SC]”, for which the binding result in data set [1] is “no binding”.

Regarding “CAACTTCTACCGGTCCATGTUUGUGAUGCCGACAGCUAGCAGCAAGUAAACGGUC [DIR-5]”, the equilibrium dissociation constant (Kd) was 19.2 nM in data set [2] and 74.8 nM in data set [3].

In the case of “CATGACGCTCACTGTATCTCGCCUUUAACGUAAGAGCGAUGUCUCUCAUGAUGUC [HIR-8]”, the binding result with CPA protein (as HIR-6: phenyl-dU (rigid) and indole-dA (flexible) after nt 20, label: 5'-Cy5) was “no binding”. “CATGACGCTCACTGTATCTCGCGUUUAACGUAACAGCGAUGUCUCUCAUGAUGUC [HIR-6]”: the binding result in the data set on CPA protein (after primer nt 1-20 every U = rigidly linked phenyl-dU and every A = flexibly linked indole-dA (nucleotides 1,2), DNA backbone, label: 5'-Cy5 (FNBA, MST), 5'-biotin (SPR, BLI)) is reported as “no binding”.
